For some assays here: Expression values are those of the mRNA of the gene that encodes the peptide; a gene is named only where it was looked up.

The subject of data set [1] is source genes of the peptides (mRNA). The data set can be described thus: Source gene/exon expression, TCGA tumor samples versus normal tissue RNASeq database (target coverage). More on the design: species or system human. To be noted: KICH = Kidney chromophobe (N = 66); TCGA tumors >2-fold above highest 75% percentile of normal tissues.
For data set [2], the system named is HLA-A*02 molecules of primary tumor and normal tissue samples. The data set can be described thus: Identification and label-free relative LC-MS quantitation of HLA-A*02 tumor associated peptides presented on tissue samples (XPRESIDENT). Conditions: HLA-A*02 peptides; CRC = colorectal cancer (N = 28) vs panel of normal tissues (N = 262). Further details: species or system human; key to Presentation score AML / Presentation score UEC / Presentation score CLL / Presentation score CRC: specifically presented on tumors (++++); very highly over-presented on tumors compared to a panel of normal tissues (+++); highly over-presented on tumors compared to a panel of normal tissues (++); over-presented on tumors compared to a panel of normal tissues (+).

Turning to “235: peptide found in MSH6 (gene looked up) (KIIDFLSAL; listed as Homo sapiens) [compound 235]”, the “Over-expression category of source gene (target coverage), KICH” value in data set [1] is “A (>=50% of tumors above the cutoff)”. As for “293 (FLVDGSWSI; listed as Homo sapiens) [compound 293]”, in data set [2], the “Presentation score CRC” value is recorded as “++++”.

These data come from patent publication US10143730B2, “Peptides and combination of peptides for use in immunotherapy against various cancers” (immatics biotechnologies GmbH, priority 2015, dated 2018).
